Measured values published in PubChem BioAssay AID248 (DTP/NCI, 2004).
The list does not hold the whole screen: it is rich in T/C values a quarter to a half above the control, in often repeated tests (any T/C) and in doses without a T/C. Further doses and runs are listed elsewhere. T/C: endpoint of the treated group in % of that of the vehicle group. Some doses have a count of surviving animals in place of a T/C: the source files T/C as zero there, which appears to mark a toxic dose or a test without result, not a measured value. Some survivor counts are full or nearly so, which does not show that the dose was tolerated: the source hardly ever lists a survival T/C far under the control, and the zero likely stands for such cases as well. Survivors were counted at the toxicity check, usually on the fifth day, unless a day is given; later deaths do not show. Schedule codes are those of the source, taken here to give the interval after Q, in days (D) or hours (H), and the number of doses after X. Some schedules carry Z or #; the key to these is not given. For survival time, the PubChem record calls one and a half times the control and up active, and a quarter to a half above the control has no call in these data; cut-offs in other NCI protocols can differ. Some entries were tested several times; the values are given in rising order.

Tested on: L1210 leukemia ip in BDF1 mice, survival T/C
Assay: NCI In Vivo Anticancer Drug Screen. Data for tumor model L1210 Leukemia (intraperitoneal) in B6D2F1 (BDF1) mice
Conditions: T/C endpoint: mean survival time, higher T/C = longer survival
[1] = dose: 100.0 mg/kg/injection, schedule: Q01DX001 (ip), vehicle: saline
[2] = dose: 200.0 mg/kg/injection, schedule: Q01DX001 (ip), vehicle: saline
[3] = dose: 400.0 mg/kg/injection, schedule: Q01DX001 (ip), vehicle: saline
[4] = dose: 400.0 mg/kg/injection, schedule: Q01DX009 (ip), vehicle: saline with Tween-80

In the case of `N#CSCC(=O)OC1CCCCC1`, the survivor count (dose: 80.0 mg/kg/injection, schedule: Q01DX001 (ip), vehicle: saline) is reported as 0 of 6, the survivor count [1] is reported as 0 of 4 and the survivor count [2] is reported as 0 of 4. For the same compound, the survivor count [3] was 0 of 4.
For `OC(CN1CC1)C(O)CN1CC1` (stereo not drawn), the T/C (dose: 0.12 mg/kg/injection, schedule: Q01DX Z (ip), vehicle: carboxymethylcellulose (CMC)) was 137 % of control, the T/C (dose: 0.25 mg/kg/injection, schedule: Q01DX Z (ip), vehicle: carboxymethylcellulose (CMC)) was 145 % of control and the survivor count (dose: 1.0 mg/kg/injection, schedule: Q01DX Z (ip), vehicle: carboxymethylcellulose (CMC)) was 6 of 6. For the same compound, the survivor count (dose: 1.5 mg/kg/injection, schedule: Q01DX Z (ip), vehicle: carboxymethylcellulose (CMC)) was 5 of 6, the survivor count (dose: 2.2 mg/kg/injection, schedule: Q01DX Z (ip), vehicle: carboxymethylcellulose (CMC)) was 0 of 6 and the survivor count (dose: 3.3 mg/kg/injection, schedule: Q01DX Z (ip), vehicle: carboxymethylcellulose (CMC)) was 0 of 6.
For `NC(=O)c1ccc(NC(=O)/C=C/C(=O)Nc2ccc(C(N)=O)cn2)nc1`, the T/C (dose: 2.0 mg/kg/injection, schedule: Q01DX Z (ip), vehicle: saline) was 125 and 126 % of control, the T/C (dose: 4.0 mg/kg/injection, schedule: Q01DX Z (ip), vehicle: saline) was 131 and 147 % of control and the survivor count (dose: 8.0 mg/kg/injection, schedule: Q01DX Z (ip), vehicle: saline) was 6 of 6. The T/C (dose: 10.0 mg/kg/injection, schedule: Q04DX003 (ip), vehicle: saline) was 126 % of control, the T/C (dose: 20.0 mg/kg/injection, schedule: Q04DX003 (ip), vehicle: saline) was 135 % of control and the survivor count (dose: 22.5 mg/kg/injection, schedule: Q01DX009 (ip), vehicle: saline) was 6 of 6. For the same compound, the survivor count (dose: 45.0 mg/kg/injection, schedule: Q01DX009 (ip), vehicle: saline) was 0 of 6, the survivor count (dose: 70.0 mg/kg/injection, schedule: Q04DX003 (ip), vehicle: saline) was 6 of 6 and the survivor count (dose: 105.0 mg/kg/injection, schedule: Q04DX003 (ip), vehicle: saline) was 5 of 6.
`Cc1cccc2ccc[n+](C)c12` was tested, and the survivor count [1] was 0 of 4, the survivor count [2] was 2 of 4 and the survivor count [3] was 1 of 4.
In the case of `CCOC(=O)n1ccn2cncc2c1=O`, the survivor count (dose: 200.0 mg/kg/injection, schedule: Q01DX009 (ip), vehicle: saline with Tween-80) is reported as 4 of 6 and the survivor count [4] is reported as 0 of 6.
`C/C=C/C=N/NC(=O)c1ccc(OC)cc1` was tested, and the survivor count (dose: 400.0 mg/kg/injection, schedule: Q01DX009 (ip), vehicle: Klucel (hydroxypropylcellulose) (HPC)) was 0 of 6.
For `O=NN(CCBr)C(=O)NCCBr`, the T/C (dose: 12.0 mg/kg/injection, schedule: Q01DX Z (ip), vehicle: carboxymethylcellulose (CMC)) was 130 % of control, the T/C (dose: 25.0 mg/kg/injection, schedule: Q01DX Z (ip), vehicle: carboxymethylcellulose (CMC)) was 147 % of control and the T/C (dose: 100.0 mg/kg/injection, schedule: Q01DX001 (ip), vehicle: carboxymethylcellulose (CMC)) was 127 % of control. For the same compound, the survivor count (dose: 200.0 mg/kg/injection, schedule: Q01DX Z (ip), vehicle: carboxymethylcellulose (CMC)) was 3 of 6, the survivor count (dose: 400.0 mg/kg/injection, schedule: Q01DX001 (ip), vehicle: carboxymethylcellulose (CMC)) was 0 of 6 and the survivor count (dose: 400.0 mg/kg/injection, schedule: Q01DX Z (ip), vehicle: carboxymethylcellulose (CMC)) was 0 of 6. The survivor count (dose: 500.0 mg/kg/injection, schedule: Q01DX001 (ip), vehicle: carboxymethylcellulose (CMC)) was 1 of 6, the survivor count (dose: 600.0 mg/kg/injection, schedule: Q01DX001 (ip), vehicle: carboxymethylcellulose (CMC)) was 0 of 6 and the survivor count (dose: 800.0 mg/kg/injection, schedule: Q01DX001 (ip), vehicle: carboxymethylcellulose (CMC)) was 0 of 6. The survivor count (dose: 1000.0 mg/kg/injection, schedule: Q01DX001 (ip), vehicle: carboxymethylcellulose (CMC)) was 0 of 6.
For `OC(C#CC(O)c1ccccc1)c1ccccc1` (stereo not drawn), the survivor count (dose: 400.0 mg/kg/injection, schedule: Q01DX009 (ip), vehicle: saline) was 3 of 6.
With `CN=C(N/N=C/c1ccccc1)N(C)C` the survivor count (dose: 100.0 mg/kg/injection, schedule: Q04DX003 (ip), vehicle: Klucel (hydroxypropylcellulose) (HPC)) was 3 of 6, the survivor count (dose: 175.0 mg/kg/injection, schedule: Q04DX003 (ip), vehicle: Klucel (hydroxypropylcellulose) (HPC)) was 0 of 6 and the survivor count (dose: 350.0 mg/kg/injection, schedule: Q04DX003 (ip), vehicle: Klucel (hydroxypropylcellulose) (HPC)) was 0 of 6.
For `CCOC(=O)CNC(=O)Oc1cccc2cccnc12`, the survivor count [4] was 3 of 6.
In the case of `NC(=O)NC1C(c2ccccc2)=NOC1C(N)=O` (stereo not drawn), the survivor count (dose: 200.0 mg/kg/injection, schedule: Q01DX009 (ip), vehicle: Klucel (hydroxypropylcellulose) (HPC)) is reported as 2 of 6, the survivor count (dose: 200.0 mg/kg/injection, schedule: Q04DX003 (ip), vehicle: Klucel (hydroxypropylcellulose) (HPC)) is reported as 2 of 6 and the survivor count (dose: 400.0 mg/kg/injection, schedule: Q04DX003 (ip), vehicle: Klucel (hydroxypropylcellulose) (HPC)) is reported as 1 of 6.
